Measured values published in paper PMC4075472.
Results are given in words; binding and its absence hold for the method and conditions named. Binding seen in cells or lysates may run through a third protein. A yes stands for co-enrichment or nearness to the bait. Other partners may have been found. Sequences can lack the tags named with a protein.

B1: ALPHA-ADAPTIN (protein, UniProt P91926 1-940)
chain: MAPVRGDGMRGLAVFISDIRNCKSKEAEVKRINKELANIRSKFKGDKTLDGYQKKKYVCKLLFIFLLGHDIDFGHMEAVNLLSSNKYSEKQIGYLFISVLVNTNSDLIRLIIQSIKNDLQSRNPVHVNLALQCIANIGSRDMAESFSNEIPKLLVSGDTMDVVKQSAALCLLRLFRSSPDIIPGGEWTSRIIHLLNDQHMGVVTAATSLIDALVKRNPDEYKGCVNLAVSRLSRIVTASYTDLQDYTYYFVPAPWLSVKLLRLLQNYNPVTEEAGVRARLNETLETILNKAQEPPKSKKVQHSNAKNAVLFEAINLIIHSDSEPNLLVRACNQLGQFLSNRETNLRYLALESMCHLATSEFSHEEVKKHQEVVILSMKMEKDVSVRQMAVDLLYAMCDRGNAEEIVQEMLNYLETADYSIREEMVLKVAILAEKYATDYTWYVDVILNLIRIAGDYVSEEVWYRVIQIVINREEVQGYAAKTVFEALQAPACHENMVKVGGYILGEFGNLIAGDSRSAPLVQFKLLHSKYHLCSPMTRALLLSTYIKFINLFPEIRTNIQDVFRQHSNLRSADAELQQRASEYLQLSIVASTDVLATVLEEMPSFPERESSILAVLKKKKPGRVPENEIRESKSPAPLTSAAQNNALVNNSHSKLNNSNANTDLLGLSTPPSNNIGSGSNSNSTLIDVLGDMYGSNSNNNSSAVYNTKKFLFKNNGVLFENEMLQIGVKSEFRQNLGRLGLFYGNKTQVPLTNFNPVLQWSAEDALKLNVQMKVVEPTLEAGAQIQQLLTAECIEDYADAPTIEISFRYNGTQQKFSIKLPLSVNKFFEPTEMNAESFFARWKNLSGEQQRSQKVFKAAQPLDLPGARNKLMGFGMQLLDQVDPNPDNMVCAGIIHTQSQQVGCLMRLEPNKQAQMFRLTVRASKETVTREICDLLTDQF
B2: EIF3-S9 (protein, UniProt Q0E940 1-690)
chain: MAKKKSEEHSGTDANDSDYQEEPNFDDPPGFVDNISDEDLLGDMLAQRPSEADGVESVVVVDNIPKVEPVRLEKLKLVINKLFSNYGEIVNVVYPVDEEGKTKGYAFMEYKQARQAEEAVKKLNNHRLDKNHTFAVNLFTDFQKYENIPEKWEPPTVQTFKVQSDLYNFINDPDTYDQYCVAAETAPNCVQVGFWQNVLPEPFELETRERFTDTFVKWSPLGTYVVTFHKPGVAIWGGSSFQKIQKFPHPGTQFVEFSPCENYLVTYGPTPTGQKIIIWDIRTGAEKRSFVADGMSVLSMFRWSHDDKFVARMGENSIHIYETPSFYLLDLKSIKIPGIRGFSWSPTDNVIAYWVEEQNQIPARVTLMEIPKKREIRNKNLFHVADCKLHWQKSGDYLCVKVDRYSKLKKDKKDLDVKFLGMFYNFEIFHMREKEIPVDSVEIRELILAFAWEPVGNKFSIIHGETNSSNVSFYEVNKGVKPSLVKRLEKKSCTHLFWSPRGQFIVMANLTMGTFEFVDSTNDYIITASPDHFRASEVEWDPTGRYVVTGVSSWKVKEDTGFNMYTFQGRIIKRTILKNFVQFLWRPRPPTLLSEEKQKEIKKNLKKYYAAFEQKDRLRLTRASKELLEKRSQLRETFMEYRNKRIAEWAEQKSRRIMLRGHVDTDNLETDEVDEEIVEFLVKEEVTLLE
B3: EIF3-S10 (protein, UniProt Q9VN25 1-1140)
chain: MARYTQRPENALKRANEFIEVGKPLRALDTLQEVFRNKRWNYAYSETVIEPLMFKYLYLCVELKKSHIAKEGLFQYRNMFQLVNVNSLENVIRGYLKMAEEHTEAAQAQSSAAVAVLELDDLDNIATPESILMSAVCGEDAQDRSDRTILLPWVKFLWESYCQCLELLRVNTHCEALYHDIARMAFQFCLKYNRKSEFRRLCDKLRKHLEDICKSSNQTTGVSINKVETQQLCLDTRLYLLDSAIQMELWQEAYKAIEDIHGLMALSKKTPVPKTMANYYQKLAMVFSKAGNQLFHAAALLKLFQLTRELKKNLTKDDLQRMAAHVLLATLSIPLPSAHPEFDRFIEADKSPLEKAQKLAVLLGLPQPPTRVSLIREVVRLNVPQLVSEDFRNLYNWLEVDFNPLNLCKRIQSIVDFIENGPENALLTPYIQSLKDVTIMRLIRQISQVYESIKFQRLLQLASFCNIFELEKLLVESVRHNDMQIRIDHQKNSIYFGTDLTESQREYRPDGPALQSMPSEQIRSQLVNMSTVLTRAVSIVYPNRERDQRAKLRNQMVNHYHEIKDREHQRILQRQKIIEDRKEYIEKQNNAREEEEARRQEEESRKAKLAEQKRLEQEQEERERKRHQNEIQAIREKSLKEKVQQISQTAHGKKMLSKLDEEGIKKLDAEQIAKRESEELQREAKELQSKLKSQEKKIDYFERAKRLEEIPLFEKYLAEKQVKDKEFWEATEKTRIENAIAERKDAVAQQERLKRMYPDRDEFLEALKKERASLYVEKLKKFEAALEAERKKRLADRIIRRREERRQAFLREKEEERLRKEEEIRLAQAAEERAAAEARRLEREAEDEKRRAQYEKQRAKEEEAERKIKEDRDRLSRELASERERTEKDRDTWRPRGGDRPSASNGGSSEWRRAAPAASERNDRGGERIERGGERIERGGERLERGGERIERGGDRDRKDNEGADSSWRVRREPDSQRAAAPKDSGAPQSRDDKWRRGGERDRDFRIDGARRDRDDGPRRDRDDGPRRDRDDERGGFRRADGARRTDEPQRETGGNWRDAPRHADRETRRPAERRDRDVRETRGDQRGSAPKEAASGGVGGNWRTAPATREEKPAAKRDQAQEKENKAGDDGEWTSVKRR
B4: AGO2 (protein, UniProt Q9VUQ5 1-1214)
chain: MGKKDKNKKGGQDSAAAPQPQQQQKQQQQRQQQPQQLQQPQQLQQPQQLQQPQQQQQQQPHQQQQQSSRQQPSTSSGGSRASGFQQGGQQQKSQDAEGWTAQKKQGKQQVQGWTKQGQQGGHQQGRQGQDGGYQQRPPGQQQGGHQQGRQGQEGGYQQRPPGQQQGGHQQGRQGQEGGYQQRPSGQQQGGHQQGRQGQEGGYQQRPPGQQQGGHQQGRQGQEGGYQQRPSGQQQGGHQQGRQGQEGGYQQRPPGQQQGGHQQGRQGQEGGYQQRPPGQQQGGHEQGRQGQEGGYQQRPSGQQQGGHQQGRQGQEGGYQQRPSGQQQGGHQQGRQGQEGGYQQRPSGQQQGGHQQGRQGQEGGYQQRPPGQQPNQTQSQGQYQSRGPPQQQQAAPLPLPPQPAGSIKRGTIGKPGQVGINYLDLDLSKMPSVAYHYDVKIMPERPKKFYRQAFEQFRVDQLGGAVLAYDGKASCYSVDKLPLNSQNPEVTVTDRNGRTLRYTIEIKETGDSTIDLKSLTTYMNDRIFDKPMRAMQCVEVVLASPCHNKAIRVGRSFFKMSDPNNRHELDDGYEALVGLYQAFMLGDRPFLNVDISHKSFPISMPMIEYLERFSLKAKINNTTNLDYSRRFLEPFLRGINVVYTPPQSFQSAPRVYRVNGLSRAPASSETFEHDGKKVTIASYFHSRNYPLKFPQLHCLNVGSSIKSILLPIELCSIEEGQALNRKDGATQVANMIKYAATSTNVRKRKIMNLLQYFQHNLDPTISRFGIRIANDFIVVSTRVLSPPQVEYHSKRFTMVKNGSWRMDGMKFLEPKPKAHKCAVLYCDPRSGRKMNYTQLNDFGNLIISQGKAVNISLDSDVTYRPFTDDERSLDTIFADLKRSQHDLAIVIIPQFRISYDTIKQKAELQHGILTQCIKQFTVERKCNNQTIGNILLKINSKLNGINHKIKDDPRLPMMKNTMYIGADVTHPSPDQREIPSVVGVAASHDPYGASYNMQYRLQRGALEEIEDMFSITLEHLRVYKEYRNAYPDHIIYYRDGVSDGQFPKIKNEELRCIKQACDKVGCKPKICCVIVVKRHHTRFFPSGDVTTSNKFNNVDPGTVVDRTIVHPNEMQFFMVSHQAIQGTAKPTRYNVIENTGNLDIDLLQQLTYNLCHMFPRCNRSVSYPAPAYLAHLVAARGRVYLTGTNRFLDLKKEYAKRTIVPEFMKKNPMYFV
B5: NK3 (protein, UniProt P22809 1-382)
chain: MLNMESAGVSAAMAGLSKSLTTPFSINDILTRSNPETRRMSSVDSEPEPEKLKPSSDRERSISKSPPLCCRDLGLYKLTQPKEIQPSARQPSNYLQYYAAAMDNNNHHHQATGTSNSSAADYMQRKLAYFGSTLAAPLDMRRCTSNDSDCDSPPPLSSSPSESPLSHDGSGLSRKKRSRAAFSHAQVFELERRFAQQRYLSGPERSEMAKSLRLTETQVKIWFQNRRYKTKRKQIQQHEAALLGASKRVPVQVLVREDGSTTYAHMAAPGAGHGLDPALINIYRHQLQLAYGGLPLPQMQMPFPYFYPQHKVPQPIPPPTQSSSFVTASSASSSPVPIPIPGAVRPQRTPCPSPNGQMMSVESGAESVHSAAEDVDENVEID

target: T1, CASK-β, full-length wild type, tagged with a C-terminal YFP (Drosophila) (UniProt Q24210); assay: affinity purification with mass spectrometry; as a1, but CASK-YFP expressed with C164-GAL4 (a subset of adult neurons)
T1 sequence: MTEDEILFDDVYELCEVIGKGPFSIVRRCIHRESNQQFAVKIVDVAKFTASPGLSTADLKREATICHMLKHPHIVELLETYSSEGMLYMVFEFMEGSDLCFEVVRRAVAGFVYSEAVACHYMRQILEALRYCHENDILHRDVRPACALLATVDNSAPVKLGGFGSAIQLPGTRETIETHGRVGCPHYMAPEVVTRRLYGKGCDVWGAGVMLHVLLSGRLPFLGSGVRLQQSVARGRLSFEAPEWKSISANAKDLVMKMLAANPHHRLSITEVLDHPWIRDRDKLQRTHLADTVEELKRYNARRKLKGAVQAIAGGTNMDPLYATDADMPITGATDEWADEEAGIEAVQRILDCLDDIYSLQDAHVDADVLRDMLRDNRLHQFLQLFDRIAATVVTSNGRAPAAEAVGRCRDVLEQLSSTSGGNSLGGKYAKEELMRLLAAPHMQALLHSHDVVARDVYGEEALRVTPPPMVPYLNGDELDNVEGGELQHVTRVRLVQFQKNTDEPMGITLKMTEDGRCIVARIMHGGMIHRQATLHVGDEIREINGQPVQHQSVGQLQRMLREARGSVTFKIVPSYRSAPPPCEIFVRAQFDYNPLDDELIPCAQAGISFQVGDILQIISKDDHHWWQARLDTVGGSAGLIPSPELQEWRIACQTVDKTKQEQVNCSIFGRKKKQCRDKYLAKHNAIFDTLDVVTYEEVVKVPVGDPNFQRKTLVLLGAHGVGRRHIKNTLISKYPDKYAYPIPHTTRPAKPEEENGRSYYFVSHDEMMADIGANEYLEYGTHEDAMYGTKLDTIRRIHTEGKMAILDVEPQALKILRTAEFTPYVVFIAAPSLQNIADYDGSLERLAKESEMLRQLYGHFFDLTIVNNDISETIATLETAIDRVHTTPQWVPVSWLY

binding, binds:
B1, B2, B3, B4, B5
